Experimental data reported in patent publication US20110306570A1, “Na/K-Atpase Expression as an Indicator for the Treatment of Cancer” (UNIVERSITY OF TOLEDO, priority 2008, published 2011).
“Also recorded” adds a separate entry of the source. At least one compound was matched to its structure with a doubt left.

Legend:
[1] = tested on: LLC-PK1 cells; assay: MTT cell growth assay, LLC-PK1 cells; assay type: cell-based, pig; conditions: 10 nM rapamycin 30 min, then ouabain 24 h
Method: FIG. 1A: LLC-PK1 cells, BT20 cells, and DU145 cells were subcultured in 96-well plates (10,000 cells/well) and serum starved. […] Cells were solublized by adding 100 μl/well detergent provided by ATCC after 90 min of incubation and OD570 was then measured.
Cell growth was then measured using MTT assay.
MTT assay for measuring cell proliferation: Cells were sub-cultured in 96 well plates at 10,000 cells/well in 100 μl culture medium. […] Ten μl MTT reagent (3-4,5-dimethylthiazol-2-yl)-2,5-diphenyltetrazolium bromide) was added to each well for 90 min. The formazan crystal was dissolved with detergent and the OD value was measured at 570 nm.

[2] = molecular target: T1, Na/K-ATPase α1 (Sus scrofa, UniProt P05024); assay: Na/K-ATPase α1 expression by Western blot, LLC-PK1 cells; assay type: cell-based, pig; conditions: for effect of inhibitor on basal expression of α1: 10 nM rapamycin or 50 μM LY294002; for effect of inhibitor on ouabain-induced up-regulation of α1 subunit: 10 nM rapamycin or 50 μM LY294002 for 30 min, then 10 nM ouabain 24 h
T1 construct: endogenous in cells; host or cells: LLC-PK1 (ATCC) and its caveolin-1 knock-down line C2-9
Method: FIG. 7A: LLC-PK1 cells were pre-treated with 10 nM rapamycin or 50 μM LY294002 for 30 min. […] The cell lysates were analyzed for Na/K-ATPase α1 using Western blot.

Structure (SMILES): CO[C@H]1C[C@@H]2CC[C@@H](C)[C@@](O)(O2)C(=O)C(=O)N2CCCC[C@H]2C(=O)O[C@H]([C@H](C)C[C@@H]2CC[C@@H](O)[C@H](OC)C2)CC(=O)[C@H](C)/C=C(\C)[C@@H](O)[C@@H](OC)C(=O)[C@H](C)C[C@H](C)/C=C/C=C/C=C/1C [rapamycin]
- effect of rapamycin on ouabain-induced cell growth (MTT) [1]: sufficient to block ouabain-induced cell growth; also recorded: sufficient to block ouabain-induced cell proliferation
- effect of inhibitor on basal expression of α1 [2]: reduced the basal expression of al; also recorded: reduced the basal expression of a1
- effect of inhibitor on ouabain-induced up-regulation of α1 subunit [2]: completely abolished ouabain-induced up-regulation of al subunit; also recorded: completely abolished ouabain-induced up-regulation of a1 subunit

Structure (SMILES): O=c1cc(N2CCOCC2)oc2c(-c3ccccc3)cccc12 [LY294002]
- effect of inhibitor on basal expression of α1 [2]: reduced the basal expression of al; also recorded: reduced the basal expression of a1
- effect of inhibitor on ouabain-induced up-regulation of α1 subunit [2]: completely abolished ouabain-induced up-regulation of al subunit; also recorded: completely abolished ouabain-induced up-regulation of a1 subunit
